Reference: paper PMC10409813
No constants are given. Whether binding was seen depends on the method and setting. In cells and extracts the contact can be indirect. Here binding means that the protein was enriched with, or labelled near, the bait; the list need not be complete. A no says only that the protein was not detected with the bait. Tags and fused reporters may be left off the sequences shown. One block for each molecule: values may come before it.

Protein sequences, listed by entry. Tags and fused reporters are not part of them.
UniProt O94649: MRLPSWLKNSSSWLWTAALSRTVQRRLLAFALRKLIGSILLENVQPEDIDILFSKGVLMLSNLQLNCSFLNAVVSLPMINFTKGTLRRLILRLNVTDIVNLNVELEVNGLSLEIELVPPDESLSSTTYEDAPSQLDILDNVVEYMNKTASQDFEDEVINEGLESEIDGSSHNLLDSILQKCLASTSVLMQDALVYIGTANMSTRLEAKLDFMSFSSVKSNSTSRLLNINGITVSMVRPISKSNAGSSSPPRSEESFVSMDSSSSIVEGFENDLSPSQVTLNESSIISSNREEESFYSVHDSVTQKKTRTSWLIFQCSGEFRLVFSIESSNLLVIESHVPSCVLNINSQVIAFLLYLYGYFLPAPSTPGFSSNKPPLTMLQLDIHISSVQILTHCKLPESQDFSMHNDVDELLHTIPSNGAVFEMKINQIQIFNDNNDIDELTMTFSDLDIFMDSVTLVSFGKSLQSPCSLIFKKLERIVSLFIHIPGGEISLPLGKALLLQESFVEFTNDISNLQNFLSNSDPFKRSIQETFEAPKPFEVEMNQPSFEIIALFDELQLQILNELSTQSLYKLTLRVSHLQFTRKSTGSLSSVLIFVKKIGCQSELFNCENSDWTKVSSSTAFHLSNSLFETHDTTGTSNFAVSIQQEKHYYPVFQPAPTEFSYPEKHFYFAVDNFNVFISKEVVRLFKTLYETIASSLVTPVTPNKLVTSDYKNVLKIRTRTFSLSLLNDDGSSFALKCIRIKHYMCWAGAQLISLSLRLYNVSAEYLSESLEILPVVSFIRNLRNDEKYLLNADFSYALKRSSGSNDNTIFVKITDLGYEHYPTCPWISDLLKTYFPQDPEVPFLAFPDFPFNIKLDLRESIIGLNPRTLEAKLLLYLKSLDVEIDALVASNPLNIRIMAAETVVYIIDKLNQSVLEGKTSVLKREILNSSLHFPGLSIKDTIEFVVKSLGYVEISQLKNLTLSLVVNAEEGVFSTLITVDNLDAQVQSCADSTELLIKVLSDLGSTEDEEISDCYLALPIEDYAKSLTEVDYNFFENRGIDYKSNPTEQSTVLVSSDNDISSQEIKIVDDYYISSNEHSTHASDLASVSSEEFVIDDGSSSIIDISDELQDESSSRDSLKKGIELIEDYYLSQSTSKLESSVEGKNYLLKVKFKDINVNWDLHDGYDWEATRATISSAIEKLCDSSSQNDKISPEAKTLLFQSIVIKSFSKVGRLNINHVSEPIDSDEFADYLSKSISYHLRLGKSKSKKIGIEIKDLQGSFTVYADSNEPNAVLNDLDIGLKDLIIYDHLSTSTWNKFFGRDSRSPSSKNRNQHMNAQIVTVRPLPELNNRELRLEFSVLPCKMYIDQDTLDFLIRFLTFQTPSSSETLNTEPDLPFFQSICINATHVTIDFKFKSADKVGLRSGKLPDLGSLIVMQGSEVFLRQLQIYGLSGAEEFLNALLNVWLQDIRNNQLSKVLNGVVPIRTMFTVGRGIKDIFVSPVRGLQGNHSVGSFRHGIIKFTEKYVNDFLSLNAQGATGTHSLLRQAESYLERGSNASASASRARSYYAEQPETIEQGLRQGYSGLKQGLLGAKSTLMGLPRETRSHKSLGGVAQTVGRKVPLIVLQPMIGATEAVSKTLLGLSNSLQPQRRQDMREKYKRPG

Assays:
[1] = target: T1, FLAG-tagged S. pombe Rop1 (S. pombe) (UniProt O14355); experiment: affinity purification with mass spectrometry; Rop1-FLAG or Yop1-FLAG at endogenous levels in S. pombe, logarithmic phase (YES) or starved (EMM-N, 2 h); membrane fraction solubilized in 1% DDM, M2 resin, elution with 3xFLAG peptide, label-free mass spectrometry
T1 sequence: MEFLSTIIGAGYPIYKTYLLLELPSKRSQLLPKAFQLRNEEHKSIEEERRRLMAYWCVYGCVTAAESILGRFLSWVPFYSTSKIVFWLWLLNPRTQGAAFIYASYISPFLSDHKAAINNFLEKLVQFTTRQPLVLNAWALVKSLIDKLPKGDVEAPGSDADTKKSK

[2] = target: T2, FLAG-tagged S. pombe Yop1 (S. pombe) (UniProt Q9UU91); experiment: as above
T2 sequence: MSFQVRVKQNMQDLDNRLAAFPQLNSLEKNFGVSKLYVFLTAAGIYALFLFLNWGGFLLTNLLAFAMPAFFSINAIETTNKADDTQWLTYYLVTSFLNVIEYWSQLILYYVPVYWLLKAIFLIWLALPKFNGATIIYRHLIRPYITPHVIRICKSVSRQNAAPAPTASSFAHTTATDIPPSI

- binding [1]: no binding
Molecule: Atg2 (from UniProt O94649 1-1646)

- binding [1]: no binding
- binding [2]: no binding
B1: Atg9 (protein, UniProt O74312 1-702)
chain: MFYQPAQNKKQYDDLADIEAQNNVPNTQEVLEAWQESLDSDEDESSPLEESNGFTISEHDDFVKSVPRKNNPTDLLYSGKLLDSDEPPSVHGNSSKVPSKHPSPSFPETTSLRNLQNGSKQKPALPNFNDPHFYNEDVTRSGHPNRSIYTQLPRNEFSNARVLWNRLSARDRVLWRWANVENLDSFLQQVYTYYTGKGLSCIIVHRLFQILTVSFVIGFTTFITSCIDWPAVTPHGSLAGVTKSQCIAQMSPITYLVLWLFLSFLLALWIYYLTDIPRLWQMREFYIHALKIATADMPTVSWQRVLYRLLKLKNVNALTAEDGRVVSLHNMKRLDAYAIANRIMRKDNYFIALINNGIINIELPLLHRRILTHTTEWNINWCIFNFVFDEQGQLRSAFRNPNSRKRLSEELRRRFIVAGFLNCLFAPIVAIYLVIHNFFRYFNEYHKNPGALSTRRYTPLALWTFREYNELQHFFDERINDSYAAASHYVSQFPDFNMIRLFKYISFILGSFTAILVIITVFDPELMVTFEITKDRSVLFYLGLFGSLIAVSRSIIPDETLVFAPEKALRRVITFTHYMPGWWSDNMHSKAVQQEFCSLYSYRIVNLLWEILGILLTPVLLFFTFPSCSQDIVDFFREHTINVEGVGYVCSYAVFQDNPPYESVASLVQSRKISPLIQNKPELSRISFYEQFNTEAPRRDLR
